The text below walks through data of PubChem BioAssay AID330 (DTP/NCI, 2004).

This assay deals with P388 leukemia ip, CD2F1 mice, survival T/C. Briefly: NCI In Vivo Anticancer Drug Screen. Data for tumor model P388 Leukemia (intraperitoneal) in CD2F1 (CDF1) mice. The note with it: T/C endpoint: median survival time, higher T/C = longer survival.
Setting [1] is: dose: 50.0 mg/kg/injection, schedule: Q04DX002 (ip), vehicle: water.
Where [2] appears, read: dose: 100.0 mg/kg/injection, schedule: Q01DX009 (ip), vehicle: Klucel (hydroxypropylcellulose) (HPC).
Where [3] appears, read: dose: 100.0 mg/kg/injection, schedule: Q01DX009 (ip), vehicle: saline with Tween-80.
Setting [4] is: dose: 100.0 mg/kg/injection, schedule: Q01DX005 (ip), vehicle: saline with Tween-80.
[5] abbreviates: dose: 200.0 mg/kg/injection, schedule: Q01DX005 (ip), vehicle: saline with Tween-80.

The list does not hold the whole screen: it gathers tests that were run many times, whatever their T/C, doses with no T/C, and many T/C values between a quarter and a half above the control. Further doses and runs are listed elsewhere. T/C gives the treated animals as a percentage of the vehicle group. Some entries give survivors of the animals treated and no T/C: the source holds a T/C of zero for them, seemingly a mark for toxic or unscored doses. Some survivor counts are full or nearly so, which does not show that the dose was tolerated: the source hardly ever lists a survival T/C far under the control, and the zero likely stands for such cases as well. Survivors were counted at the toxicity check, usually on the fifth day, unless a day is given; later deaths do not show. Schedule codes are those of the source, read here as Q, the interval in days (D) or hours (H), X, the number of doses. Some entries were tested several times; the values are given in rising order. Some molecules as drawn cover several salts, stereoisomers or complexes of the source; a dose is that of the sample tested. Signs of the kind (2×) stand for listed records that agree. Where survival is the endpoint, the PubChem record calls one and a half times the control and up active, and a quarter to a half above the control has no call in these data; cut-offs in other NCI protocols can differ. Some T/C values are followed by the survivors on the day toxicity was checked, most often the fifth; where none is given, no animal had died by that day.

Regarding `O=C1c2c(O)cccc2-c2nn(CCNCCO)c3ccc(NCCNCCO)c1c23`, the T/C is, setting by setting: (dose: 6.25 mg/kg/injection, schedule: Q04DX002 (ip), vehicle: water) 134 % of control; (dose: 12.5 mg/kg/injection, schedule: Q04DX002 (ip), vehicle: water) 142 % of control; under setting [1], 142 % of control. Further, the survivor count reads like this: under setting [1], 4 of 6; (dose: 100.0 mg/kg/injection, schedule: Q04DX002 (ip), vehicle: water) 1 of 6 and 6 of 6; (dose: 200.0 mg/kg/injection, schedule: Q04DX002 (ip), vehicle: water) 1 of 6.

For the compound `CN(CCN1C(=O)c2cccc3cccc(c23)C1=O)CCN1C(=O)c2cccc3cccc(c23)C1=O`, for the setting “dose: 120.0 mg/kg/injection, schedule: Q01DX005 (ip), vehicle: saline with Tween-80”, the survivor count was 6 of 6.

As for `[CH3][Bi]1[O]C(=O)c2ccccc2[S]1`, the T/C reads like this: (dose: 50.0 mg/kg/injection, schedule: Q01DX005 (ip), vehicle: Klucel (hydroxypropylcellulose) (HPC), evaluated on day 20) 97 [5 of 6 alive] and 102 % of control; (dose: 50.0 mg/kg/injection, schedule: Q01DX005 (ip), vehicle: Klucel (hydroxypropylcellulose) (HPC), evaluated on day 30) 94 % of control; (dose: 100.0 mg/kg/injection, schedule: Q01DX005 (ip), vehicle: Klucel (hydroxypropylcellulose) (HPC), evaluated on day 20) 118 and 119 % of control; (dose: 100.0 mg/kg/injection, schedule: Q01DX005 (ip), vehicle: Klucel (hydroxypropylcellulose) (HPC), evaluated on day 30) 100 % of control (2×); (dose: 200.0 mg/kg/injection, schedule: Q01DX005 (ip), vehicle: Klucel (hydroxypropylcellulose) (HPC), evaluated on day 20) 108 [5 of 6 alive] and 121 % of control; (dose: 200.0 mg/kg/injection, schedule: Q01DX005 (ip), vehicle: Klucel (hydroxypropylcellulose) (HPC), evaluated on day 30) 101 and 112 % of control. Besides, where the note is “dose: 50.0 mg/kg/injection, schedule: Q01DX005 (ip), vehicle: Klucel (hydroxypropylcellulose) (HPC)”, the survivor count was 4 of 6.

With `COc1ccc2c(c1)[C@@]13CCCCC1[C@@H](C2)N(CC1CC1)CC3` (some centres not stated), for the setting “dose: 400.0 mg/kg/injection, schedule: Q01DX001 (ip), vehicle: Klucel (hydroxypropylcellulose) (HPC)”, the survivor count is reported as 3 of 6.

Consider `c1ccc(P2CCc3[nH]c4ccccc4c3C2)cc1` (configuration not stated), for which the T/C (dose: 400.0 mg/kg/injection, schedule: Q04DX003 (ip), vehicle: saline with Tween-80) was 135 % of control.

In the case of `OC(CNC1CCCCC1)c1ccccc1` (configuration not stated), the survivor count is reported as 0 of 6 (dose: 50.0 mg/kg/injection, schedule: Q01DX009 (ip), vehicle: Klucel (hydroxypropylcellulose) (HPC)); 0 of 6 under setting [2]; 0 of 6 (dose: 200.0 mg/kg/injection, schedule: Q01DX009 (ip), vehicle: Klucel (hydroxypropylcellulose) (HPC)); 0 of 6 (dose: 400.0 mg/kg/injection, schedule: Q01DX009 (ip), vehicle: Klucel (hydroxypropylcellulose) (HPC)).

For `CC(C)(C)C1C=Nn2c(=O)n(-c3ccccc3)c(=O)n21` (configuration not stated), the survivor count (dose: 50.0 mg/kg/injection, schedule: Q04DX003 (ip), vehicle: other) is 4 of 4.

As for `CC(/C=N\NC(=O)C[N+](C)(C)C)=N/NC(=O)C[N+](C)(C)C`, the survivor count by setting is: (dose: 100.0 mg/kg/injection, schedule: Q01DX001 (ip), vehicle: saline) 0 of 6; (dose: 200.0 mg/kg/injection, schedule: Q01DX001 (ip), vehicle: saline) 0 of 6; (dose: 400.0 mg/kg/injection, schedule: Q01DX001 (ip), vehicle: saline) 0 of 6.

For `COc1ccc2c(c1OC)C(O)N1CCc3cc4c(cc3C1=C2C(=O)c1ccccc1)OCO4` (configuration not stated), the survivor count runs as follows: (dose: 100.0 mg/kg/injection, schedule: Q01DX005 (ip), vehicle: Klucel (hydroxypropylcellulose) (HPC)) 0 of 6 and 1 of 5; (dose: 200.0 mg/kg/injection, schedule: Q01DX005 (ip), vehicle: Klucel (hydroxypropylcellulose) (HPC)) 0 of 6.

Turning to `N#CC(=C1N=c2ccccc2=N1)c1[nH]c(O)c2ccccc12`, the survivor count runs as follows: (dose: 50.0 mg/kg/injection, schedule: Q01DX009 (ip), vehicle: saline with Tween-80) 6 of 6; under setting [3], 6 of 6; (dose: 200.0 mg/kg/injection, schedule: Q01DX009 (ip), vehicle: saline with Tween-80) 5 of 6.

As to `CS(=O)(=O)OCCCCCCCCCOS(C)(=O)=O`, the T/C (dose: 50.0 mg/kg/injection, schedule: Q04DX003 (ip), vehicle: saline sonified) was 133 % of control. Moreover, the survivor count is, setting by setting: (dose: 100.0 mg/kg/injection, schedule: Q04DX003 (ip), vehicle: saline sonified) 6 of 6; (dose: 200.0 mg/kg/injection, schedule: Q04DX003 (ip), vehicle: saline sonified) 6 of 6.

As to `Cc1ccc(Cl)cc1NC(=O)N(C)CCOC(=O)Nc1cccc(Cl)c1`, under “dose: 240.0 mg/kg/injection, schedule: Q01DX005 (ip), vehicle: Klucel + Tween-80”, the survivor count is reported as 6 of 6.

Consider `O=[Se](=O)(O)O`, for which the survivor count was 2 of 6 (dose: 30.0 mg/kg/injection, schedule: Q01DX005 (ip), vehicle: saline); 0 of 6 (2×) (dose: 60.0 mg/kg/injection, schedule: Q01DX005 (ip), vehicle: saline); 0 of 6 (2×) (dose: 120.0 mg/kg/injection, schedule: Q01DX005 (ip), vehicle: saline); 0 of 6 (2×) (dose: 240.0 mg/kg/injection, schedule: Q01DX005 (ip), vehicle: saline).

Regarding `COc1ccc2c(C#N)cc3c(c[n+](C)c4ccccc34)c2c1`, the survivor count is, setting by setting: (dose: 50.0 mg/kg/injection, schedule: Q04DX003 (ip), vehicle: distilled water + Tween-80) 6 of 6; (dose: 100.0 mg/kg/injection, schedule: Q04DX003 (ip), vehicle: distilled water + Tween-80) 5 of 6; (dose: 200.0 mg/kg/injection, schedule: Q04DX003 (ip), vehicle: distilled water + Tween-80) 1 of 6; (dose: 400.0 mg/kg/injection, schedule: Q04DX003 (ip), vehicle: distilled water + Tween-80) 0 of 6.

In the case of `N[C@H](C(=O)O)[C@@H]1CC(S(=O)(=O)c2ccccc2)=NO1`, the survivor count is, setting by setting: (dose: 50.0 mg/kg/injection, schedule: Q01DX005 (ip), vehicle: distilled water + Tween-80) 2 of 6; (dose: 100.0 mg/kg/injection, schedule: Q01DX005 (ip), vehicle: distilled water + Tween-80) 0 of 6; (dose: 200.0 mg/kg/injection, schedule: Q01DX005 (ip), vehicle: distilled water + Tween-80) 0 of 6.

Regarding `N=C1CCC(=N)c2c1c(O)c1ccccc1c2O`, the survivor count reads like this: (dose: 50.0 mg/kg/injection, schedule: Q01DX005 (ip), vehicle: saline with Tween-80) 5 of 5; under setting [4], 5 of 5; under setting [5], 4 of 5.

`O=C1C2C3C=CC(C2C(=O)N1Cc1ccccc1)C1C2C(=O)N(Cc4ccccc4)C(=O)C2C31` (configuration not stated): the survivor count reads like this: (dose: 50.0 mg/kg/injection, schedule: Q01DX001 (ip), vehicle: saline with Tween-80) 6 of 6; (dose: 100.0 mg/kg/injection, schedule: Q01DX001 (ip), vehicle: saline with Tween-80) 6 of 6; (dose: 200.0 mg/kg/injection, schedule: Q01DX001 (ip), vehicle: saline with Tween-80) 6 of 6; (dose: 400.0 mg/kg/injection, schedule: Q01DX001 (ip), vehicle: saline with Tween-80) 6 of 6.

In the case of `Cc1cc(N(C)C)c2ccc(N(C)C)cc2n1`, the survivor count is, setting by setting: under setting [4], 0 of 6; under setting [5], 0 of 6.

Regarding `Cc1ccc(NC(=O)OCCN(C)C(=O)Nc2ccc(C)cc2C)c(C)c1`, for the setting “dose: 120.0 mg/kg/injection, schedule: Q01DX005 (ip), vehicle: Klucel (hydroxypropylcellulose) (HPC)”, the survivor count is given as 6 of 6.

With `ClC1(c2ccccc2)c2ccc(Br)cc2-c2cc(Br)ccc21`, the T/C is 133 % of control under setting [2]; 136 % of control under setting [3]; 125 % of control (dose: 150.0 mg/kg/injection, schedule: Q01DX009 (ip), vehicle: Klucel (hydroxypropylcellulose) (HPC)).
